# According to patent US7947458B1, “Placental human neurokinin B precursor” (Perinatal Diagnostics Limited, priority 1999, dated 2011):
# Columns and labels:
# [1] = Radioimmunoassay of neurokinin B in extracted plasma; parameters: species or system human
# [2] = Radioimmunoassay of neurokinin B in placental extracts; parameters: species or system human
substance,measurement,setting,value
neurokinin B [NKB],plasma level of the peptide,[1]; non-pregnant volunteers,low levels
same,level of neurokinin B in the maternal blood stream,"[1]; normal pregnancy, before near term",zero or very low levels
same,concentration of plasma NKB,"[1]; normal pregnancy, maternal blood at or near term",~100 picomolar
same,concentration of neurokinin B in maternal plasma,"[1]; pregnancy induced hypertension or pre-eclampsia, late pregnancy/near term",nanomolar range
same,NKB content of placental extracts,[2]; early placenta,21 pg/g
same,NKB content of placental extracts,[2]; term placenta,25 pg/g
